Results taken from PMC5719079.
No constants are given. Whether binding was seen depends on the method and setting. Binding seen in cells or lysates may run through a third protein. Some binding calls cover weakened binding; strength is not graded here. Where a sequence is shown, tags or fusion partners need not be part of it.

Experiments:
[1] = target: T1, V^N-SIRT2 (SIRT2 fused to the N-terminal fragment of Venus, BiFC construct) (human) (UniProt Q8IXJ6); test: split reporter; BiFC competition in HeLa cells: V^C-TPPP/p25 and V^N-SIRT2 with an additional 0.1 μg unlabelled TPPP/p25 or α-synuclein construct; BiFC signal quantified in at least 90 cells
T1 sequence: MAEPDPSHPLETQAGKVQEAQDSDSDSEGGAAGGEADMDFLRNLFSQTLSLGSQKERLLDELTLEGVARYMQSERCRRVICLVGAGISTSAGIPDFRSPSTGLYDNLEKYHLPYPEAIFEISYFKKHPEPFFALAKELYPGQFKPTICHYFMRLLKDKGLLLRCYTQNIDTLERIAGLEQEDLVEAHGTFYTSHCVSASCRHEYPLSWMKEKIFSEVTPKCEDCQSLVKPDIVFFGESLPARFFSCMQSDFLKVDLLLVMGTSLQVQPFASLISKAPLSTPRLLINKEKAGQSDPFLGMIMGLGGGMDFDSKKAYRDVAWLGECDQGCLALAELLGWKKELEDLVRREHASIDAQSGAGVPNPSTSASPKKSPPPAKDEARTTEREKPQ

[2] = target: T1, V^N-SIRT2 (SIRT2 fused to the N-terminal fragment of Venus, BiFC construct) (human); test: split reporter; BiFC with split Venus in HeLa cells transfected with V^C-TPPP/p25 and V^N-SIRT2 (0.3 μg of each plasmid), fixed cells, fluorescence microscopy; 20 μM MZ25 for 3 hours left the signal unchanged

Row | binding [1] | binding [2] | Substance
1 | binds | binds | V^C-TPPP/p25 (human full length TPPP/p25 fused to the C-terminal fragment of Venus, BiFC construct) (from UniProt O94811 1-219)
2 | binds | – | Unlabelled TPPP/p25 (co-transfected competitor) (from UniProt O94811 1-219)
